No constants are given. Whether binding was seen depends on the method and setting. In cells and extracts the contact can be indirect. Some results given as binding are weak or reduced against the parent protein; the word gives no strength. For some of these results: Tags and fused reporters may be left off the sequences shown.
T1: Flag-tagged IRAKM Phos-mut (S167A/S170A) (UniProt Q8K4B2)
T1 sequence: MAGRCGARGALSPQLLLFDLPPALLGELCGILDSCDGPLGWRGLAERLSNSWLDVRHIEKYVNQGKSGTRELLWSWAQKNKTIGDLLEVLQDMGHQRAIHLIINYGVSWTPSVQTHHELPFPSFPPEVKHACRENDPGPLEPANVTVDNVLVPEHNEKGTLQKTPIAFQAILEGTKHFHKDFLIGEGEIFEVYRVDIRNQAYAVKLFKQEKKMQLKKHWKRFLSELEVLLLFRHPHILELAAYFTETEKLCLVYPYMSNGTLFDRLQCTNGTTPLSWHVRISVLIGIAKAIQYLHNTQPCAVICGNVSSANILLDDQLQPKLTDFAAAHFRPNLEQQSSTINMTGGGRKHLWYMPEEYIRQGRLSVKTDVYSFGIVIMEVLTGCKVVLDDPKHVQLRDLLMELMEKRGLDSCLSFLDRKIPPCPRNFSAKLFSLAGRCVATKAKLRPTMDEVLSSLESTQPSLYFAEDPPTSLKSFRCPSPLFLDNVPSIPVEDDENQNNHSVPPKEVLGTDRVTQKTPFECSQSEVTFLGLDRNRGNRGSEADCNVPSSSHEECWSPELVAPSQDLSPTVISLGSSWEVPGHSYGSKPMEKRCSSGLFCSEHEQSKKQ

Chains of the proteins cited; added tags and fusions are not shown. Residues count along the entry.
UniProt Q8JZU2, residues 14-311: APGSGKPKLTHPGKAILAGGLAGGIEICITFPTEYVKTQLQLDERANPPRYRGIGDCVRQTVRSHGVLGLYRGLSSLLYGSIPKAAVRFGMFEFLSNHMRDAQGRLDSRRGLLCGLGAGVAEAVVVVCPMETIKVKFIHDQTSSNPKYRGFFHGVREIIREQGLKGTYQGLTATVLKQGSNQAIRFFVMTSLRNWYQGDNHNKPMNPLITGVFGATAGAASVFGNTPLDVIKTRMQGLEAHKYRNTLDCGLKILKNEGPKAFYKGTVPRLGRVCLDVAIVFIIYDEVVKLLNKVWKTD

T2: IRAKM (mouse (endogenous in primary adipocytes)) (UniProt Q8K4B2)
T2 sequence: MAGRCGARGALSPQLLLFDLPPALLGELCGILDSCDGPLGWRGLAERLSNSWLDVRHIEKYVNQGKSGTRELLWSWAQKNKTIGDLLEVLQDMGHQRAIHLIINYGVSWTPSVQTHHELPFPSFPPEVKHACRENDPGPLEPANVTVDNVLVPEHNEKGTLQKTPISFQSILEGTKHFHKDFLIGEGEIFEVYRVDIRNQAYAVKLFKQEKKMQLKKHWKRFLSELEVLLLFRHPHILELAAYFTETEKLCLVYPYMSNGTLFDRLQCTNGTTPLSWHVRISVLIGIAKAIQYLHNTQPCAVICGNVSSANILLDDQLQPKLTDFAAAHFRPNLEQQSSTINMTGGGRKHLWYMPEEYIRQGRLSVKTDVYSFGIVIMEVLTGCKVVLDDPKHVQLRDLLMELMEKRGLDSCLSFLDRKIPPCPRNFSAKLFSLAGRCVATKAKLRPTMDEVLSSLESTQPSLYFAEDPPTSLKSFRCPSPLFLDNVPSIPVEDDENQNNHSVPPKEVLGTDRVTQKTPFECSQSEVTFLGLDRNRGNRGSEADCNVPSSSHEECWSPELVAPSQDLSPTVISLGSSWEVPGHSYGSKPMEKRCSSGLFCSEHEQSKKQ

T3: Flag-tagged wild-type IRAKM (UniProt Q8K4B2)
T3 sequence: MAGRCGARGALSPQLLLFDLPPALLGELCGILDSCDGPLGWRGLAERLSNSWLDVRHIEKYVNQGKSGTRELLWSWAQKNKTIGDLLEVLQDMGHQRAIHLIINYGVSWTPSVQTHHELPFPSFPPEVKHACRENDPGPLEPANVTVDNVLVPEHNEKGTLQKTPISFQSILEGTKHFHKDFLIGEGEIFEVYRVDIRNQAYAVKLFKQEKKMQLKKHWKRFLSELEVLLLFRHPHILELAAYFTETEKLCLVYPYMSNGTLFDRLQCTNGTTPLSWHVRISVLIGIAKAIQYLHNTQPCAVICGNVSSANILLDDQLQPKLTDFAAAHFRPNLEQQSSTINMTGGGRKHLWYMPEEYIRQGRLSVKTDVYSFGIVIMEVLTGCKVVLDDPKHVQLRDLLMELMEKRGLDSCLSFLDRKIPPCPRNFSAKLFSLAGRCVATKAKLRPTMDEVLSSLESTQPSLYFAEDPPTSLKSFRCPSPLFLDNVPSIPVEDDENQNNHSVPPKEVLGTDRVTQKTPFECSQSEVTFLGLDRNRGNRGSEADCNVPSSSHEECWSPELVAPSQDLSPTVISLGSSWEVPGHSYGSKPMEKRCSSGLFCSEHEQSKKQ


Legend:
Experiment in all cases: co-IP; mitochondrial lysate (1% NP-40, 20 mM Tris-HCl pH 7.4, 150 mM NaCl) of IL-1β treated primary adipocytes; IP with anti-IRAKM, anti-Slc25a1 or anti-Flag antibody and protein G-sepharose at 4 °C overnight; western blot
[1] = molecular target: T1, Flag-tagged IRAKM Phos-mut (S167A/S170A)
[2] = molecular target: T2, IRAKM (mouse (endogenous in primary adipocytes))
[3] = molecular target: T3, Flag-tagged wild-type IRAKM
[4] = molecular target: mitochondrial citrate carrier solute carrier family 25 member 1 (Slc25a1) (mouse (endogenous in primary adipocytes)) (UniProt Q8JZU2)

| Molecule | binding [1] | binding [2] | binding [3] | binding [4] |
| --- | --- | --- | --- | --- |
| mitochondrial citrate carrier solute carrier family 25 member 1 (Slc25a1) (from UniProt Q8JZU2 14-311) | no binding | binds | binds |  |
| IRAK2 (protein, UniProt Q8CFA1 1-622) MACYIYQLPSWVLDDLCRNIDTLSEWDWMQFASYVITDLTQLRKIKSMERVQGVSITRELLWWWSMRQATVQQLVDLLCHLELYRAAQIVLSWKPVPESTSPLPAFPEAVKPGAVATSRRNLKDEQEKVRPVKPRSLLDTGPIMAGAQRQRPCEMDAPCSLKTDAPDSPQSKYCSTSTSAPKQERLLGLPGDRLFWSEADVVQATEDFDQSHRISEGTFADIYQGQRNGVAFAFKKLREVAGSSPGSMDRFLQAEMQLCLRCCHANVLPLLGFCTGRQFHSLIYPYMANGSLHDRLWAQGNSDMLPWPQRASICSGLLLAVEHLHSLDIIHSNVKSANVLLDQHLNPKLAHPVAHPHPDNKKTKYTVMRTHLFQASAAYLPEHFIRVGQLTKQVDIFSCGIVLAEVLTGIPAMDKDRSPVYLKDLLLSEIPNSTSSVCSRKTSMGKAVVKEICQRHVEKRAGLLPEACEEAWATAVSVCLRRRNASVEEARVSLAGVEEQLRGQLSLPWSRVSEATGSSSNTPEETDDVDNSSLSVPSLVMMASCPGAASSPLFTGHGAAQPSTSGRQEADSSSEACTGPQTPQNATETSWKIEINEAKRRLMENIVLYKEERLDSSELFGP |  |  |  | no binding |

From publication PMC9117277
